{"source": "patent US20090238778A1", "about": "“TOOTH WHITENING COMPOSITIONS, DELIVERY SYSTEMS AND METHODS” (priority 2008, published 2009)", "tested_on": "extracted human teeth", "assay": "adsorption and desorption of riboflavin phosphate on extracted human teeth", "key": {"[1]": {"conditions": "treated specimens subsequently exposed to ambient light for 4 hours"}}}
{"smiles": "Cc1cc2nc3c(=O)[nH]c(=O)nc-3n(C[C@H](O)[C@H](O)[C@H](O)COP(=O)(O)O)c2cc1C", "note": "[riboflavin phosphate, riboflavin 5′-monophosphate]", "values": [{"measurement": "delta b after treatment", "setting": "after 20 minute treatment with aqueous 0.01% solution, N=8", "value": 1.15}, {"measurement": "average b* value after treatment", "setting": "after 20 minute treatment with aqueous 0.01% solution, N=8, before treatment 21.42", "value": 22.57}, {"measurement": "average b* after ambient light", "setting": "[1]", "value": 21.43}, {"measurement": "delta b from original b*", "setting": "[1]", "value": 0.01}]}
